We go through one molecule from patent US20230091175A1.

Sequences of proteins named here, by UniProt entry; tags and fusion partners are left off. Residues count along the entry.
UniProt P10145, residues 28-99: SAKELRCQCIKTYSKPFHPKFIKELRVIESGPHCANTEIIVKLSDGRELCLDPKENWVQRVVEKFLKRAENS

The assay deals with interleukin 8 (CXCL8) (100-175: Shenandoah Biotechnology, Inc.) (UniProt P10145). In words: SPR (Biacore 8K).

No constants are given. Whether binding was seen depends on the method and setting. Some binding calls cover weakened binding; strength is not graded here.

B1: R3 variant of anti-IL-8 antibody (clone 146-1) (Fab, V domains shown, not shown: a dimerising Fc or GST)
VH: EVQLVESGGGLVKPGGSLKLSCAASGFTFSSYAMSWVRQTPEKRLEWVATISNGGSYTYYPDSLKGRFTISRDNAKNTLYLQMSSLRSEDTAIYYCARGITGGVYFDYWGQGTTLTVSS
VL: DIQMTQSPASLSASVGETVTITCRASENIYSYLAWYQQKQGKSPHLLVYDAETLAEGVPSRFRGRGRGTQFSLKINSLQPEDFGSYYCQHHYGTPWTFGGGTKLEIKR
Regarding B1, the binding result was “binds”.
